The results in this text go back to publication PMC12040169 (PLOS Biology, 2025).

The other results are listed elsewhere or left out.

This experiment concerns T1, CTL2-GFP (C. trachomatis L2/434/Bu, GFP-expressing).
T1 construct: L2/434/Bu, GFP-expressing
On the set-up: species or system HeLa; Intracellular C. trachomatis growth in HeLa cells, bulk GFP fluorescence relative to DMSO. As to conditions: bulk GFP, single well; 28.5 h, 10 µM; inhibitor.
As to `O=C(NCC(CN1CCOCC1)([N+](=O)[O-])[N+](=O)[O-])c1ccccc1` [CBK261339], the “% of control remaining” value was 100.713%.

On to `Cc1ccc(OCC(=O)Nc2cccc3nsnc23)c(C)c1` [CBK263816], for which the “% of control remaining” value is 100%. Then `Cc1ccc(S(=O)(=O)Nc2nnc(C3CCCCC3)s2)cc1` [CBK022722], with 119.307%; and `CC(=O)Nc1ccc(NC(=O)CSCc2ccc(Cl)cc2Cl)cc1` [CBK131696], with 101.556%; and `Cc1cc(C(=O)NCCCn2ccnc2)no1` [CBK268145], with 106.809%. Then `COc1nc(SC)nc2[nH]ccc12` [CBK085861], with 101.409%. Take `CC(C)Oc1ccc(C2CC(=O)N(c3cccc(C(=O)O)c3)C2=O)cc1` (stereo not drawn) [CBK291181]: the “% of control remaining” value is 164.987%. On to `CC1(C)CC(=O)C=C(SCC(=O)C(C)(C)C)S1` [CBK005523], for which the “% of control remaining” value was determined as 97.1723%. With `O=C(COc1ccccc1C1CC(=O)Nc2ccc3ccccc3c21)Nc1ccccc1` (stereo not drawn) [CBK265704] the figure was 115.69%; with `CCCn1cnc2sc(C(=O)O)c(C)c2c1=O` [CBK287199], 127.812%; with `CC1CCC(N(C)Cc2nc3sc4c(c3c(=O)[nH]2)CCC4)CC1` (stereo not drawn) [CBK305876], 139.472%. Then `Cc1ncccc1C(=O)N1CCC(F)CC1` [CBK200398], with 119.177%; and `CC1(OCCCO)SC(NC2CCCCCC2)=NC1=O` (stereo not drawn) [CBK107927], with 111.648%; and `CC(C)c1ccc(C(=O)N2CCC(n3cnc4cccnc43)CC2)cc1` [CBK282370], with 140.314%. Consider `Cc1cc2nc(-c3cc(NC(=O)c4ccc(C)c([N+](=O)[O-])c4)ccc3O)oc2cc1C` [CBK262779], for which the “% of control remaining” value is 132.678%. Consider `COc1cc(CNC(=O)NC(=O)C2CCN(CCc3c(-c4ccccc4)[nH]c4ccccc34)CC2)cc(OC)c1OC` [CBK034859], for which the “% of control remaining” value came out at 149.341%. Consider `CC(NC(=O)c1ncoc1-c1ccc(F)cc1)c1ccncc1` (stereo not drawn) [CBK282319], for which the “% of control remaining” value turned out to be 111.905%. On to `Cc1cccc(-c2n[nH]c(=S)n2CC(=O)NCCCS(=O)(=O)Cc2ccccc2)c1` [CBK297942], for which the “% of control remaining” value was 116.557%. Take `CCOC(=O)c1[nH]c2ccccc2c1NC(=O)c1ccoc1` [CBK160169]: the “% of control remaining” value was 99.3587%.

Take `Cn1nccc1NS(=O)(=O)c1ccc(-c2cc(C(F)(F)F)on2)s1` [CBK062087]: the “% of control remaining” value is listed as 96.6453%. As for `Cn1c(C(N)=O)cc(=O)n1-c1ccc([N+](=O)[O-])cc1` [CBK015873], the “% of control remaining” value is recorded as 95.3162%. In the case of `Cc1csc(C(=O)N2CCC(c3cc(O)cc(C)n3)CC2)c1` [CBK283466], the “% of control remaining” value was 132.854%.

For the compound `CC(C)(C)c1csc(Nc2ncc(C(F)(F)F)cc2Cl)n1` [CBK021513], the “% of control remaining” value is 154.481%. With `CCCOc1ccc(N2C(=O)CC(N3CCC(C(=O)O)CC3)C2=O)cc1` (stereo not drawn) [CBK287235] the figure was 111.536%; with `CCn1cc(C(=O)N2CCC(Oc3ccccc3C)(C(=O)O)CC2)cn1` [CBK306699], 103.991%. Then `CC(=O)Nc1nc2ccc(S(C)(=O)=O)cc2s1` [CBK287336], with 93.4821%; and `CC(NC(=O)/C(=C\c1ccccc1)NC(=O)c1ccc(Br)o1)C(=O)O` (stereo not drawn) [CBK264934], with 91.5181%; and `O=C(O)Cc1ccc(NC(=O)C2Cc3ccccc3C(=O)O2)cc1` (stereo not drawn) [CBK269406], with 146.289%. With `COc1ccccc1CNS(=O)(=O)c1ccccc1[N+](=O)[O-]` [CBK261699], the “% of control remaining” value amounted to 106.827%. Then `Cc1cc(Cl)c(S(=O)(=O)Nc2cccnc2)cc1OCC(=O)NC1CCCCC1` [CBK266773], with 152.401%; and `COc1ccccc1-c1cnc2[nH]c(=O)n(CC(C)(C)CO)c2n1` [CBK064690], with 135.326%. Consider `CC(C)(C)OC(=O)NCc1ccc(CNCc2cc(F)cc(F)c2)cc1` [CBK056707], for which the “% of control remaining” value is on record as 119.726%. With `CC(C)(C(=O)N1CCC(C(=O)NCCc2c[nH]c3ccccc23)C1)c1ccc(F)cc1` (stereo not drawn) [CBK286034] the figure was 119.672%. Then `CC(C)NC(=O)N1Cc2nc[nH]c2C[C@H]1c1nc(-c2ccc(F)c(Cl)c2)no1` [CBK288999], with 123.328%; and `Cc1ccc(S(=O)(=O)N2CCN(Cc3cc(Br)ccc3O)CC2)cc1` [CBK264242], with 100%. With `OC1(c2ccc(F)cc2)CC2CCC(C1)N2Cc1ccccn1` (stereo not drawn) [CBK283490] the figure was 100.276%; with `O=C(NCC1CCCN1)c1ccccc1Nc1cccc(C(F)(F)F)c1` (stereo not drawn) [CBK115916C], 68.7658%.

Turning to `Clc1ccc(-c2cc(CN3CCCCC3)no2)cc1Cl` [CBK018435], the “% of control remaining” value amounted to 138.654%.

With `O=S(=O)(Nc1ccc2nsnc2c1)c1ccc(F)cc1` [CBK051010], the “% of control remaining” value is listed as 124.121%. As for `COC(=O)c1cccc2c1[nH]c1ccccc12` [CBK001709], the “% of control remaining” value is 113.789%. Then `Cc1cccc(CC(=O)N2CCCC2c2ccnc3cc(C)nn23)c1` (stereo not drawn) [CBK283472], with 105.094%; and `CC(C(=O)N1CCC(C(=O)c2nccs2)CC1)c1ccccc1` (stereo not drawn) [CBK284163], with 119.327%. With `CCC(NC(=O)c1csc2c1CCCC2)c1ccccc1` (stereo not drawn) [CBK059006], the “% of control remaining” value was 97.9312%. Turning to `CC1=C[C@@H](CNS(=O)(=O)c2ccccc2)[C@H](C(C)C)C[C@H]1CC(=O)N1CCOCC1` [CBK289049], the “% of control remaining” value worked out at 112.056%. Take `CCOC(=O)Cn1nc(CC)c(Cc2c(Cl)cccc2Cl)c1C` [CBK113222]: the “% of control remaining” value was found to be 101.477%. Then `COc1ccc(NC(=O)c2cnc(-c3ccc(Cl)cc3)c(-c3ccc(C(C)=O)s3)c2)cn1` [CBK036643], with 160.145%; and `C=C1C2(C(=O)NCCn3nc(C)c(Cl)c3C)CCC(C2)C1(C)C` (stereo not drawn) [CBK281661], with 127.068%. Then `COc1ccc(C(NC(=O)C2CCN(C(=O)NC(C)(C)C)CC2)c2ccccn2)cc1` (stereo not drawn) [CBK060298], with 88.6201%. With `O=C(c1ccccc1)N1CCCC1c1n[nH]cc1-c1ccncc1` (stereo not drawn) [CBK283433] the figure was 127.155%; with `COc1cc(C2CN=NC23Cc2ccccc2C3=O)cc(OC)c1OC` (stereo not drawn) [CBK019341], 113.146%; with `Cc1ncccc1C(=O)NC(Cc1cccs1)c1nccs1` (stereo not drawn) [CBK285153], 96.0487%.

For the compound `COCCCn1c(=O)[nH]c2ncc(-c3ccco3)nc21` [CBK064449], the “% of control remaining” value amounted to 105.095%. Turning to `O=C(Nc1nc2ccc(Br)cc2s1)C1CC1` [CBK026046], the “% of control remaining” value is reported as 98.085%. With `O=C(c1cccc(S(=O)(=O)Nc2ccccn2)c1)N1CCCc2ccccc21` [CBK269645] the figure was 142.822%. With `Cc1c(C(=O)C2=C(O)C(=O)N(CCCN(C)C)C2c2cccnc2)cnn1-c1ccccc1` (stereo not drawn) [CBK269312] the figure was 99.4615%; with `CCOC(=O)c1c(N)sc2c1CC(c1ccccc1)SC2c1ccccc1` (stereo not drawn) [CBK293955], 155.389%; with `OC1(c2cccnc2)CCCC2CN(Cc3ccc(F)c(F)c3)CC21` (stereo not drawn) [CBK284511], 77.8619%. Regarding `CN1CCN(C(=O)c2ccc(-c3cnc(N)c(-c4ccc(O)cc4)n3)cc2F)CC1` [CBK200421], the “% of control remaining” value is 110.101%.

On to `Cn1c(CN2CCCCC2)nc2cc(NS(=O)(=O)c3ccc(Cl)cc3)ccc21` [CBK268404], for which the “% of control remaining” value came out at 135.674%.

Take `Cc1nn(C)c(N2CCNCC2)c1NC(=O)c1cccn1C` [CBK050309T]: the “% of control remaining” value was determined as 118.346%. With `CCCCCNC(=N)NC1Cc2ccccc2C1` [CBK036321T] the figure was 142.403%; with `O=c1[nH]nc2c3c(nc(-c4ccncc4)n12)CCCC3` [CBK288029], 101.187%; with `CCc1c(C)c2cc(Cl)c(O)c(CN3CCCC3)c2oc1=O` [CBK267099], 185.628%. Consider `C=CCn1c(SCC(=O)Nc2ccc(OC)cc2)nnc1-c1ccncc1` [CBK126824], for which the “% of control remaining” value was 120.612%.

As to `O=S(=O)(Nc1nnc(C(F)(F)F)s1)c1ccc(Br)cc1C(F)(F)F` [CBK062013], the “% of control remaining” value turned out to be 117.902%. In the case of `Cc1cc(C(=O)Nc2ccc(S(=O)(=O)N3CC(C)OC(C)C3)cc2)c2ccccc2n1` (stereo not drawn) [CBK295170], the “% of control remaining” value came out at 164.836%. For `CC(NC(=S)Nc1ccc(S(N)(=O)=O)cc1)c1ccncc1` (stereo not drawn) [CBK267073], the “% of control remaining” value was found to be 91.006%. Regarding `COc1ccc(Br)cc1CN1CCC(N2CCN(c3ccccc3OC)CC2)CC1` [CBK264681G], the “% of control remaining” value is 100%.

`COc1cccc(S(=O)(=O)Nc2nn(Cc3ccc(C)cc3)c3ccccc23)c1` [CBK048043]: the “% of control remaining” value came to 88.5853%. With `CN1C(=O)COc2ccccc2CCCC[C@@H]2[C@H]1CCCN2C(=O)Cn1ccnc1` [CBK292152], the “% of control remaining” value came to 125.457%. `C[C@H]1CN2C[C@H](O)CC2CN1Cc1cn(C)c2ccc(F)cc12` (stereo partly drawn) [CBK285428]: the “% of control remaining” value was determined as 106.366%. As for `CC(C)(C)OC(=O)N1CCN(c2ncc([N+](=O)[O-])s2)CC1` [CBK000135], the “% of control remaining” value amounted to 106.556%.

Consider `COc1ccc(CCOC(=O)Nc2cn(C)nc2C(F)(F)F)cc1OC` [CBK021070], for which the “% of control remaining” value amounted to 106.601%.

Take `COc1ccc2cc(CNC(Cc3ccccc3)c3ccccc3)c(Cl)nc2c1` (stereo not drawn) [CBK295357]: the “% of control remaining” value is recorded as 173.591%. With `NC(=O)C1CCN(C(=O)CN2CCN(Cc3ccccc3)CC2)CC1` [CBK265971C] the figure was 132.766%.

With `Cn1cc([C@@H]2O[C@H](CO)[C@H](O)C2O)c(=O)n(C)c1=O` (stereo partly drawn) [CBK201191], the “% of control remaining” value was determined as 152.616%. With `O=S(=O)(Nc1nc(-c2sccc2Cl)cs1)c1cc(Cl)ccc1Cl` [CBK014147] the figure was 116.117%; with `CC(=O)O[B-]1(OC(C)=O)N(c2ccc(S(N)(=O)=O)cc2)N=C(c2ccccc2)N=[N+]1c1ccccc1` [CBK260879], 100%.
